Some results were stated once for a whole list of compounds, not compound by compound. Some compounds share one range, which may span the group rather than tell each member.
Experiments:
[1] = system: cucumber gray mold microorganism; assay: Cucumber gray mold preventing effect assay; type: in vivo, Botrytis cinerea; conditions: cucumber cotyledon phase, wettable formulation 500 mg/L sprayed at 1,000 L/ha, 4 days after inoculation
Protocol: The sprayed leaves were air-dried, and loaded with a paper disc (8 mm in diameter) soaked with a spore suspension of a cucumber gray mold microorganism, and kept at 20 degrees C. and a high humidity. 4 Days after inoculation, the cucumber gray mold severity was investigated, and the protective value was calculated by the following equation. [table]

[2] = system: wheat leaf rust microorganism; assay: Wheat leaf rust preventing effect assay; type: in vivo, Puccinia recondita; conditions: wheat two-leaf phase, 500 mg/L sprayed at 1,000 L/ha, 9 to 14 days after inoculation
[3] = system: wheat powdery mildew microorganism; assay: Wheat powdery mildew preventing effect assay; type: in vivo, Erysiphe graminis f. sp tritici; conditions: wheat two-leaf phase, 500 mg/L sprayed at 1,000 L/ha, 14 days after inoculation
wheat powdery mildew = assay: Wheat powdery mildew preventing effect by seed treatment; type: in vivo, Erysiphe graminis f. sp tritici; conditions: 2 mg compound per 1 g wheat seeds, 7, 14, 28 and 56 days after seeding, stems and leaves
[4] = system: wheat septoria bloth microorganism (Septoria tritici); assay: Antimicroorganism effect, mycelial extension on PDA plate; type: cell-based; conditions: PDA plate medium, 50 mg/l, 1 to 3 days
[5] = system: wheat stagonospora blotch microorganism (Phaeosphaeria nodorum); assay: as above; type: cell-based; conditions: PDA plate medium, 50 mg/l, 1 to 3 days
[6] = system: wheat eye spot microorganism (Pseudocercosporella herpotrichoides); assay: as above; type: cell-based; conditions: PDA plate medium, 50 mg/l, 1 to 3 days
[7] = system: wheat pink snow mold microorganism (Microdochium nivale); assay: as above; type: cell-based; conditions: PDA plate medium, 50 mg/l, 1 to 3 days
[8] = system: wheat take-all microorganism (Gaeumannomyces graminis); assay: as above; type: cell-based; conditions: PDA plate medium, 50 mg/l, 1 to 3 days
[9] = system: barley stripe microorganism (Pyrenophora graminea); assay: as above; type: cell-based; conditions: PDA plate medium, 50 mg/l, 1 to 3 days
[10] = system: barley scald microorganism (Rhynchosporium secalis); assay: as above; type: cell-based; conditions: PDA plate medium, 50 mg/l, 1 to 3 days
[11] = system: wheat fusarium blight microorganism (Fusarium graminearum); type: cell-based; conditions: PDA plate medium, 50 mg/l, 1 to 3 days
[12] = system: barley loose smut microorganism (Ustilago nuda); assay: Antimicroorganism effect, mycelial extension on PDA plate; type: cell-based; conditions: PDA plate medium, 50 mg/l, 1 to 3 days
[13] = system: rice blast microorganism (Pyricularia oryzae); type: cell-based; conditions: PDA plate medium, 50 mg/l, 1 to 3 days
[14] = system: ricesheath blight microorganism (Rhizoctonia solani); assay: Antimicroorganism effect, mycelial extension on PDA plate; type: cell-based; conditions: PDA plate medium, 50 mg/l, 1 to 3 days
[15] = system: rice bakanae disease microorganism (Giberella fujikuroi); assay: as above; type: cell-based; conditions: PDA plate medium, 50 mg/l, 1 to 3 days
[16] = system: rice seedling blight microorganism (Rhizopus) (Rhizopus oryzae); assay: as above; type: cell-based; conditions: PDA plate medium, 50 mg/l, 1 to 3 days
[17] = system: apple alternaria blotch microorganism (Alternaria alternata); assay: as above; type: cell-based; conditions: PDA plate medium, 50 mg/l, 1 to 3 days
[18] = system: sclerotinia rot microorganism (Sclerotinia sclerotiorum); assay: as above; type: cell-based; conditions: PDA plate medium, 50 mg/l, 1 to 3 days
[19] = system: gray mold microorganism (Botritis cinerea); assay: as above; type: cell-based; conditions: PDA plate medium, 50 mg/l, 1 to 3 days
[20] = system: anthracnose microorganism (Glomerella cingulata); assay: as above; type: cell-based; conditions: PDA plate medium, 50 mg/l, 1 to 3 days
[21] = system: cucumber fusarium wilt microorganism (Fusarium oxysporum); assay: as above; type: cell-based; conditions: PDA plate medium, 50 mg/l, 1 to 3 days
[22] = system: citrous blue mold microorganism (Penicillium italicum); assay: as above; type: cell-based; conditions: PDA plate medium, 50 mg/l, 1 to 3 days
[23] = system: sugar beet cercospora leaf spot microorganism (Cercospora beticola); assay: as above; type: cell-based; conditions: PDA plate medium, 50 mg/l, 1 to 3 days
[24] = system: Aspergillus microorganism (Aspergillus sp.); assay: as above; type: cell-based; conditions: PDA plate medium, 50 mg/l, 1 to 3 days
[25] = system: Tricoderma microorganism (Trichoderma sp.); assay: as above; type: cell-based; conditions: PDA plate medium, 50 mg/l, 1 to 3 days
[26] = system: penicillium microorganism (Penicillium sp.); assay: as above; type: cell-based; conditions: PDA plate medium, 50 mg/l, 1 to 3 days
[27] = system: Cladosporium microorganism (Cladosporium sp.); assay: as above; type: cell-based; conditions: PDA plate medium, 50 mg/l, 1 to 3 days
[28] = system: Mucor microorganism (Mucor sp.); assay: as above; type: cell-based; conditions: PDA plate medium, 50 mg/l, 1 to 3 days
[29] = system: Aureobasidium microorganism (Aureobasidium sp.); assay: as above; type: cell-based; conditions: PDA plate medium, 50 mg/l, 1 to 3 days
[30] = system: Curvularia microorganism (Curvularia sp.); assay: as above; type: cell-based; conditions: PDA plate medium, 50 mg/l, 1 to 3 days
[31] = system: wood denaturing microorganism (Tyromyces palustris); assay: as above; type: cell-based; conditions: PDA plate medium, 50 mg/l, 1 to 3 days
[32] = system: wood denaturing microorganism (Coriolus versicolor); assay: as above; type: cell-based; conditions: PDA plate medium, 50 mg/l, 1 to 3 days
rice plant = assay: Rice growth regulation assay; type: in vivo; conditions: seed treatment, 36 mg compound per 180 g rice seeds, plant height 20 days after seeding

Question: Which protective value [1] does the source give for Cc1ccc(CC2CCC3(CC3)C2(O)Cn2cncn2)cc1 (stereo not shown) [Compound I-27] here?
Answer: Its protective value is ≥ 80%.

Question: What about the protective value [2] of the same compound?
Answer: Its protective value is ≥ 80%.

Question: What about the protective value [3] of the same compound?
Answer: The protective value was ≥ 80%.

Question: What about the “Powdery mildew controlling index” value (wheat powdery mildew) of the same compound?
Answer: Its value is 4 (Protective value of 61 to 80).

Question: And the growth inhibition grade [4]?
Answer: Its growth inhibition grade is 5 (% Mycerial extension inhibition of 90% or higher).

Question: What about the growth inhibition grade [5] of the same compound?
Answer: The growth inhibition grade was 5 (% Mycerial extension inhibition of 90% or higher).

Question: And the growth inhibition grade [6]?
Answer: Its growth inhibition grade is 5 (% Mycerial extension inhibition of 90% or higher).

Question: What about the growth inhibition grade [7] of the same compound?
Answer: The growth inhibition grade was 4 (% Mycerial extension inhibition of less than 90 to 70% or higher).

Question: And the growth inhibition grade [8]?
Answer: Its growth inhibition grade is 5 (% Mycerial extension inhibition of 90% or higher).

Question: And the growth inhibition grade [9]?
Answer: The growth inhibition grade was 5 (% Mycerial extension inhibition of 90% or higher).

Question: What about the growth inhibition grade [10] of the same compound?
Answer: Its growth inhibition grade is 5 (% Mycerial extension inhibition of 90% or higher).

Question: And the growth inhibition grade [11]?
Answer: Its growth inhibition grade is 5 (% Mycerial extension inhibition of 90% or higher).

Question: What about the growth inhibition grade [12] of the same compound?
Answer: The growth inhibition grade was 4 (% Mycerial extension inhibition of less than 90 to 70% or higher).

Question: What about the growth inhibition grade [13] of the same compound?
Answer: The growth inhibition grade was 5 (% Mycerial extension inhibition of 90% or higher).

Question: And the growth inhibition grade [14]?
Answer: Its growth inhibition grade is 4 (% Mycerial extension inhibition of less than 90 to 70% or higher).

Question: What about the growth inhibition grade [15] of the same compound?
Answer: Its growth inhibition grade is 5 (% Mycerial extension inhibition of 90% or higher).

Question: And the growth inhibition grade [16]?
Answer: Its growth inhibition grade is 4 (% Mycerial extension inhibition of less than 90 to 70% or higher).

Question: And the growth inhibition grade [17]?
Answer: The growth inhibition grade was 4 (% Mycerial extension inhibition of less than 90 to 70% or higher).

Question: What about the growth inhibition grade [18] of the same compound?
Answer: The growth inhibition grade was 5 (% Mycerial extension inhibition of 90% or higher).

Question: What about the growth inhibition grade [19] of the same compound?
Answer: Its growth inhibition grade is 5 (% Mycerial extension inhibition of 90% or higher).

Question: And the growth inhibition grade [20]?
Answer: The growth inhibition grade was 5 (% Mycerial extension inhibition of 90% or higher).

Question: What about the growth inhibition grade [21] of the same compound?
Answer: Its growth inhibition grade is 5 (% Mycerial extension inhibition of 90% or higher).

Question: And the growth inhibition grade [22]?
Answer: The growth inhibition grade was 5 (% Mycerial extension inhibition of 90% or higher).

Question: What about the growth inhibition grade [23] of the same compound?
Answer: The growth inhibition grade was 5 (% Mycerial extension inhibition of 90% or higher).

Question: And the growth inhibition grade [24]?
Answer: Its growth inhibition grade is 5 (% Mycerial extension inhibition of 90% or higher).

Question: And the growth inhibition grade [25]?
Answer: Its growth inhibition grade is 5 (% Mycerial extension inhibition of 90% or higher).

Question: And the growth inhibition grade [26]?
Answer: The growth inhibition grade was 5 (% Mycerial extension inhibition of 90% or higher).

Question: And the growth inhibition grade [27]?
Answer: The growth inhibition grade was 5 (% Mycerial extension inhibition of 90% or higher).

Question: What about the growth inhibition grade [28] of the same compound?
Answer: Its growth inhibition grade is 4 (% Mycerial extension inhibition of less than 90 to 70% or higher).

Question: And the growth inhibition grade [29]?
Answer: Its growth inhibition grade is 4 (% Mycerial extension inhibition of less than 90 to 70% or higher).

Question: What about the growth inhibition grade [30] of the same compound?
Answer: Its growth inhibition grade is 4 (% Mycerial extension inhibition of less than 90 to 70% or higher).

Question: And the growth inhibition grade [31]?
Answer: The growth inhibition grade was 5 (% Mycerial extension inhibition of 90% or higher).

Question: And the growth inhibition grade [32]?
Answer: The growth inhibition grade was 5 (% Mycerial extension inhibition of 90% or higher).

Question: And the growth regulation grade (rice plant)?
Answer: Its growth regulation grade is 4 (% Plant height suppression of less than 50 to 30% or higher).
